The text below walks through data of PMC3138737, “Interaction between the Triglyceride Lipase ATGL and the Arf1 Activator GBF1” (PLoS ONE, 2011).

Chains of the proteins cited; added tags and fusions are not shown. Lines headed by an entry give the natural chain unless they say otherwise; changes in a name come on top.
UniProt Q9Y6D6: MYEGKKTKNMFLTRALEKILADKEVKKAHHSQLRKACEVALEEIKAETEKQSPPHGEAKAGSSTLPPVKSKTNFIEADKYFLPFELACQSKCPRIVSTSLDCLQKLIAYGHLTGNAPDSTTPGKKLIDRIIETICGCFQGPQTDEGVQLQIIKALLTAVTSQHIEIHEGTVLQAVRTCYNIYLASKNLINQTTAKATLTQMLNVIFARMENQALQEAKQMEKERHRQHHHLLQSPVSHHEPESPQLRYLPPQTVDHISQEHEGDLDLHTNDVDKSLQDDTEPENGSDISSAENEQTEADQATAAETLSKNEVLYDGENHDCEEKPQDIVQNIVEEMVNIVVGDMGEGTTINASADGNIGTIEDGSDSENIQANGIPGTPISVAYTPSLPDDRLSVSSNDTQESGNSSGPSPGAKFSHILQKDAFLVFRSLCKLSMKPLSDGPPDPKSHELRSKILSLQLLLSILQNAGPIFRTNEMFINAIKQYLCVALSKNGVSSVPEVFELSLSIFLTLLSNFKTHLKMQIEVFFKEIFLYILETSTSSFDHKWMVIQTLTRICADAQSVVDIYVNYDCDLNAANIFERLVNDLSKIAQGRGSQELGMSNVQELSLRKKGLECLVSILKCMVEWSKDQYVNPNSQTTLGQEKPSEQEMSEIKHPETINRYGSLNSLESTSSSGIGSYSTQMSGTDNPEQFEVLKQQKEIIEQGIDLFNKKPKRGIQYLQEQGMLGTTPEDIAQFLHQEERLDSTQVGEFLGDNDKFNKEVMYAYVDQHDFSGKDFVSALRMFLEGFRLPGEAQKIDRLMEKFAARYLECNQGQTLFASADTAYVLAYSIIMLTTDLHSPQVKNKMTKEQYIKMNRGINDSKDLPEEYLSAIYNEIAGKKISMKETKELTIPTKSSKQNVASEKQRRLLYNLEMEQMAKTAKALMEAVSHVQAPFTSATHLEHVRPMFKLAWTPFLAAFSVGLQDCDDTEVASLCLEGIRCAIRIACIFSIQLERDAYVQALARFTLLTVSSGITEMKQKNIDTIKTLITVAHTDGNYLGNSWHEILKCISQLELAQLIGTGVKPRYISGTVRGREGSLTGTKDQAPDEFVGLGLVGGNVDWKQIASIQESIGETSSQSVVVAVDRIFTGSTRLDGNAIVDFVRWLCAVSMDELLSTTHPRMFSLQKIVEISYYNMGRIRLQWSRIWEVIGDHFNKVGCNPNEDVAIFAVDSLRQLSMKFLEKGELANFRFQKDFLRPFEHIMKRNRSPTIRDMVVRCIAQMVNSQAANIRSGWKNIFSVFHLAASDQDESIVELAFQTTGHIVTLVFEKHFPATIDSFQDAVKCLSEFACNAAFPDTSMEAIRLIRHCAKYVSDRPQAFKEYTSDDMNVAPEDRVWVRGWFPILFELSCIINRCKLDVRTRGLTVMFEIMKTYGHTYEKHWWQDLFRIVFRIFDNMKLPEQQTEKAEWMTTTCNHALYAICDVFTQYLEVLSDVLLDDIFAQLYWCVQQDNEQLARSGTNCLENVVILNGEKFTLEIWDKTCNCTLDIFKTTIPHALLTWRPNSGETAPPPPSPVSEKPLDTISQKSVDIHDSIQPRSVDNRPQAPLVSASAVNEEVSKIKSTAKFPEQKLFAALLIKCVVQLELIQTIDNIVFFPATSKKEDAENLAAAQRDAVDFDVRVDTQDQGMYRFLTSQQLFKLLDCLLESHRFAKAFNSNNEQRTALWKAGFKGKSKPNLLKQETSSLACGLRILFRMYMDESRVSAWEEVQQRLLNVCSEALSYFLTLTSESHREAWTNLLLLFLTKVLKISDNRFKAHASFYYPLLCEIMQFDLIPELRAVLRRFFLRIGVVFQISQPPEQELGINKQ
UniProt Q9Y6D5: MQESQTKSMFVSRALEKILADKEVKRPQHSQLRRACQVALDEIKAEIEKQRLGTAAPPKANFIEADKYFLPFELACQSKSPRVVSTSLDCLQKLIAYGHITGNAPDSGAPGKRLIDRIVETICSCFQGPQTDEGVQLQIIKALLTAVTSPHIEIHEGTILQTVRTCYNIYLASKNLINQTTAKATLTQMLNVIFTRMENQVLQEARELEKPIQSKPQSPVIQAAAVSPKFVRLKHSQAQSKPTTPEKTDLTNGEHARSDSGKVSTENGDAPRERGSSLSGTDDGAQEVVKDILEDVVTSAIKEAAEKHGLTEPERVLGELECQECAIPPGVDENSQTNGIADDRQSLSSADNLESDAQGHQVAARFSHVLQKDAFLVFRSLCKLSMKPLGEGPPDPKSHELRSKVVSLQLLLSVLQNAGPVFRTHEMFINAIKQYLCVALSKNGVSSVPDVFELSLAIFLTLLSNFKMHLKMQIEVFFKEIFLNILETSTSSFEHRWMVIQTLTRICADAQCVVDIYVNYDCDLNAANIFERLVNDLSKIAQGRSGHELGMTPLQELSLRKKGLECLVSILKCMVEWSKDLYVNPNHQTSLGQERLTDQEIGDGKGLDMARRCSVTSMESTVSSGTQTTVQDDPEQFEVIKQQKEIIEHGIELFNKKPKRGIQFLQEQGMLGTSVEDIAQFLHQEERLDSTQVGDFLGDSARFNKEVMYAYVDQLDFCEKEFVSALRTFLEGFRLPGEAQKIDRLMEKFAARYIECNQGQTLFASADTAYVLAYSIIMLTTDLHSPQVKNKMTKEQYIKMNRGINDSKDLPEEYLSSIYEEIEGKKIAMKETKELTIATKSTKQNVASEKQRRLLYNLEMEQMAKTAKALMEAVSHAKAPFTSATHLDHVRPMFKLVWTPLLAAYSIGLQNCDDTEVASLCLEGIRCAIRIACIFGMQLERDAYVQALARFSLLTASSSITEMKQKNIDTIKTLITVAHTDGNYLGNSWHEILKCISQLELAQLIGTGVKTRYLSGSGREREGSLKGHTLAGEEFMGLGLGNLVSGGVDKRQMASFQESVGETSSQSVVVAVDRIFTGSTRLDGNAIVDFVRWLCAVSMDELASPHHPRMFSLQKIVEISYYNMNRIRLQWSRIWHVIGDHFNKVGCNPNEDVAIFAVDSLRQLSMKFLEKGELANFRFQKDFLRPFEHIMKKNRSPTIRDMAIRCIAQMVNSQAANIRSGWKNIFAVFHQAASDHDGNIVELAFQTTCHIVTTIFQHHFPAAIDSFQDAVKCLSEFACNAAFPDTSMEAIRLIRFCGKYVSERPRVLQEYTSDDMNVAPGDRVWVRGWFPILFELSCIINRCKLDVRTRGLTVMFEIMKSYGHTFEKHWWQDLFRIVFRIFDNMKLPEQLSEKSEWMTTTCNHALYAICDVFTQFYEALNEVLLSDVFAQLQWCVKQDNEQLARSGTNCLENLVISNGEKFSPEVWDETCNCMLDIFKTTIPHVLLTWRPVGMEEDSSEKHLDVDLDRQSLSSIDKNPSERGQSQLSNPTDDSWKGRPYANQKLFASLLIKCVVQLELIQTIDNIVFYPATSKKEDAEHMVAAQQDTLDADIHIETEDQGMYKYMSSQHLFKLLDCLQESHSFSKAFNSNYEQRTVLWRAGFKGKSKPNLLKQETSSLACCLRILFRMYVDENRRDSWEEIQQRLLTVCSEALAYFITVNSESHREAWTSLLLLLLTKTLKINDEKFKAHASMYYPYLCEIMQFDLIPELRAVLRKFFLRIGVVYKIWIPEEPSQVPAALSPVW
UniProt Q99418: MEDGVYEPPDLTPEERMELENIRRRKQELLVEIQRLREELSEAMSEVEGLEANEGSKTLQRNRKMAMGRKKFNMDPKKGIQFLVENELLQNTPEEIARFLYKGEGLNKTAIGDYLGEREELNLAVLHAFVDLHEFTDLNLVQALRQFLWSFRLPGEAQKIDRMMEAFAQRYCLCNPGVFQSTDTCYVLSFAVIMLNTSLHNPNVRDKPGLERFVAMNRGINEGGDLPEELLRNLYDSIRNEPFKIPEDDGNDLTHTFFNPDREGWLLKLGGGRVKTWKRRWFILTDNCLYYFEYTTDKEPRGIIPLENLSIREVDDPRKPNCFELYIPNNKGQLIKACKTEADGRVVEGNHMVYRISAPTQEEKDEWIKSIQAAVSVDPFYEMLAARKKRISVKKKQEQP

Assay [1] concerns the target Venus-tagged BIG1 Sec7 domain, EK mutant (human) (UniProt Q9Y6D6). The assay can be described thus: co-IP; Cos7 cells co-transfected with HA-tagged ATGL constructs and Venus-tagged constructs; IP with anti-GFP, blot with anti-HA; lysis in 50 mM Tris-HCl pH 7.5, 100 mM NaCl, 1 mM EDTA, 0.5% NP40; 4°C.
Assay [2] deals with Venus-tagged BIG2 Sec7 domain, EK mutant (human) (UniProt Q9Y6D5). The assay is described as above.
Assay [3] concerns the target Venus-tagged GBF1 HUS domain (human). Described as above.
In assay [4] the target is Venus-tagged ARNO Sec7 domain, EK mutant (human) (UniProt Q99418). Described as above.
The target in assay [5] is Venus-tagged GBF1 HDS2 domain (human). The assay is described as above.
Assay [6] concerns the target Venus-tagged EFA6 Sec7 domain, EK mutant (human). Described as above.
Assay [7] deals with Venus-tagged GBF1 HDS1 domain (human). Described as above.
In a further assay the target is Venus-ΔDCB-GBF1 (human). The description is as above.
Assay [8] has as its target GBF1 Sec7 domain fused to the DNA-binding domain of Gal4p (pGBKT7-Sec7-GBF1) (human). Description: two-hybrid; yeast AH109; ATGL(367–504) in pACT2 (Gal4 activation domain), Sec7 domains in pGBKT7 (Gal4 DNA-binding domain); screen of a human brain cDNA library with BIG2 Sec7 as bait and retest; selective plates, three days at 30°C.
Assay [9] has as its target ARNO Sec7 domain fused to the DNA-binding domain of Gal4p (pGBKT7-Sec7-ARNO) (human) (UniProt Q99418). The description is as above.
Assay [10] has as its target BIG2 Sec7 domain fused to the DNA-binding domain of Gal4p (pGBKT7-Sec7-BIG2) (human) (UniProt Q9Y6D5). Described as above.
Assay [11] has as its target EFA6 Sec7 domain fused to the DNA-binding domain of Gal4p (pGBKT7-Sec7-EFA6) (human). The assay is described as above.

Residue numbers refer to the chain shown, from its start. Names may count otherwise. These are yes or no findings as the source states them, for the method shown. For some assays here: Binding can be weak; no strength is given. Sequences can lack the tags named with a protein. For some assays here: In cells and extracts the contact can be indirect.

B1: HA-tagged H. sapiens ATGL (full-length) (protein, UniProt Q96AD5 1-504)
chain: MFPREKTWNISFAGCGFLGVYYVGVASCLREHAPFLVANATHIYGASAGALTATALVTGVCLGEAGAKFIEVSKEARKRFLGPLHPSFNLVKIIRSFLLKVLPADSHEHASGRLGISLTRVSDGENVIISHFNSKDELIQANVCSGFIPVYCGLIPPSLQGVRYVDGGISDNLPLYELKNTITVSPFSGESDICPQDSSTNIHELRVTNTSIQFNLRNLYRLSKALFPPEPLVLREMCKQGYRDGLRFLQRNGLLNRPNPLLALPPARPHGPEDKDQAVESAQAEDYSQLPGEDHILEHLPARLNEALLEACVEPTDLLTTLSNMLPVRLATAMMVPYTLPLESALSFTIRLLEWLPDVPEDIRWMKEQTGSICQYLVMRAKRKLGRHLPSRLPEQVELRRVQSLPSVPLSCAAYREALPGWMRNNLSLGDALAKWEECQRQLLLGLFCTNVAFPPEALRMRAPADPAPAPADPASPQHQLAGPAPLLSTPAPEARPVIGALGL
Regarding B1, the binding entry is “binds” in assay [1]; “binds” in [2]; “binds” in [3]; “binds” in assay [4]; “binds” in [5]; “no binding” in [6].

B2: HA-tagged H. sapiens ATGL-S47A (protein, UniProt Q96AD5 1-504)
chain: B1 chain with S47A
Regarding B2, the binding result in [7] and in assay [5] was “binds” in each case.

B3: HA-tagged H. sapiens ATGL(1–289) (domain or fragment, UniProt Q96AD5 1-289)
chain: MFPREKTWNISFAGCGFLGVYYVGVASCLREHAPFLVANATHIYGASAGALTATALVTGVCLGEAGAKFIEVSKEARKRFLGPLHPSFNLVKIIRSFLLKVLPADSHEHASGRLGISLTRVSDGENVIISHFNSKDELIQANVCSGFIPVYCGLIPPSLQGVRYVDGGISDNLPLYELKNTITVSPFSGESDICPQDSSTNIHELRVTNTSIQFNLRNLYRLSKALFPPEPLVLREMCKQGYRDGLRFLQRNGLLNRPNPLLALPPARPHGPEDKDQAVESAQAEDYSQ
Consider B3, for which the binding entry in [7] and in assay [5] was “binds” in each case.

B4: HA-tagged H. sapiens ATGL(1–366) (domain or fragment, UniProt Q96AD5 1-366)
chain: MFPREKTWNISFAGCGFLGVYYVGVASCLREHAPFLVANATHIYGASAGALTATALVTGVCLGEAGAKFIEVSKEARKRFLGPLHPSFNLVKIIRSFLLKVLPADSHEHASGRLGISLTRVSDGENVIISHFNSKDELIQANVCSGFIPVYCGLIPPSLQGVRYVDGGISDNLPLYELKNTITVSPFSGESDICPQDSSTNIHELRVTNTSIQFNLRNLYRLSKALFPPEPLVLREMCKQGYRDGLRFLQRNGLLNRPNPLLALPPARPHGPEDKDQAVESAQAEDYSQLPGEDHILEHLPARLNEALLEACVEPTDLLTTLSNMLPVRLATAMMVPYTLPLESALSFTIRLLEWLPDVPEDIRWM
As to B4, the binding entry (in [7]; in assay [3]; in [5]; with Venus-ΔDCB-GBF1 (human)) was “binds” each time.

B5: HA-tagged H. sapiens ATGL(1–178) (domain or fragment, UniProt Q96AD5 1-178)
chain: MFPREKTWNISFAGCGFLGVYYVGVASCLREHAPFLVANATHIYGASAGALTATALVTGVCLGEAGAKFIEVSKEARKRFLGPLHPSFNLVKIIRSFLLKVLPADSHEHASGRLGISLTRVSDGENVIISHFNSKDELIQANVCSGFIPVYCGLIPPSLQGVRYVDGGISDNLPLYEL
Consider B5, for which the binding entry in [7] and in assay [5] was “binds” throughout.

B6: ATGL amino acids 367–504 fused to the activation domain of Gal4p (pACT2 library plasmid) (domain or fragment, UniProt Q96AD5 367-504)
chain: KEQTGSICQYLVMRAKRKLGRHLPSRLPEQVELRRVQSLPSVPLSCAAYREALPGWMRNNLSLGDALAKWEECQRQLLLGLFCTNVAFPPEALRMRAPADPAPAPADPASPQHQLAGPAPLLSTPAPEARPVIGALGL
For B6, the binding entry in [8] is “binds”; in assay [9], “binds”; in assay [10], “binds”; in assay [11] it was “no binding”.
